Results as given in doi:10.1101/365460.
These are yes or no findings as the source states them, for the method shown. In cells and extracts the contact can be indirect. Some entries that bind do so weakly or less than the wild type. Tags and fused reporters may be left off the sequences shown.

By UniProt entry, the sequences of proteins in these tests, tags left out.
UniProt Q9UI95: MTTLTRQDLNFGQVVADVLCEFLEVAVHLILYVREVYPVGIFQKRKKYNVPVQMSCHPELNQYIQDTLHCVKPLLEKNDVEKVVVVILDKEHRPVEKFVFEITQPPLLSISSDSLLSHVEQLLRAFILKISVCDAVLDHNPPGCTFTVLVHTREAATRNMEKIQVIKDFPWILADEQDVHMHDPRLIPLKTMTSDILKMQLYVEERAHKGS

T1: Flag-FAM35A (human) (UniProt Q86V20)
T1 sequence: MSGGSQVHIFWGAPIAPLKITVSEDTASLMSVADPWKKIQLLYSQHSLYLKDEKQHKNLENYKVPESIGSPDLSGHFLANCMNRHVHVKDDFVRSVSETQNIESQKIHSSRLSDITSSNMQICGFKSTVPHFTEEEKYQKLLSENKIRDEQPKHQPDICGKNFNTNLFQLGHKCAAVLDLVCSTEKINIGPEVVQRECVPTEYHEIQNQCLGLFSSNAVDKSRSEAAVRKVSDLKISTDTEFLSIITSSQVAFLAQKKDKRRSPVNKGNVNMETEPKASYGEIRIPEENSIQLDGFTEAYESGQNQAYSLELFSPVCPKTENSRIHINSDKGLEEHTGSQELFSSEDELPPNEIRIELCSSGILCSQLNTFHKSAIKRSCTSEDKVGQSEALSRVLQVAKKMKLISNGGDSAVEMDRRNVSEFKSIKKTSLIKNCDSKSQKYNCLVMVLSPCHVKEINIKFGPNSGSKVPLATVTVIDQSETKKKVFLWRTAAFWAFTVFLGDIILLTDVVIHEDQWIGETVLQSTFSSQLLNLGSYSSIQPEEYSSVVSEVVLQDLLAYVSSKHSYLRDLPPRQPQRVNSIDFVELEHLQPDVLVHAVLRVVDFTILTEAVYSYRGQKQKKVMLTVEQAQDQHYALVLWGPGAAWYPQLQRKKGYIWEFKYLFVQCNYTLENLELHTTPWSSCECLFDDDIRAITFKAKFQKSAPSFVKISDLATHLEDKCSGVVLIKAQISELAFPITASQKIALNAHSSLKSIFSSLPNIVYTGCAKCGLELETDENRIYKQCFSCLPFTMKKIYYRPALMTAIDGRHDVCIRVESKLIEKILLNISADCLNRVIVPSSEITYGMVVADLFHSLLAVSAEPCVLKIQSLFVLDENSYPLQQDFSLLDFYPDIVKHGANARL

B1: GFP-FAM35A (protein, UniProt Q86V20-2 1-904)
chain: T1 sequence
B2: GFP-C20orf196 (protein, UniProt Q8IYI0 1-205)
chain: MAARDATSGSLSEESSALDLPSACDIRDYVLQGPSQEANSEAFSSLEFHSFPYSSDVDPDTSNLNIEQNNSWTAENFWLDPAVKGQSEKEEDDGLRKSLDRFYEMFGHPQPGSANSLSASVCKCLSQKITQLRGQESQKYALRSFQMARVIFNRDGCSVLQRHSRDTHFYPLEEGSTSLDDEKPNPGLSKDITHFLLQQNVMKDL

Legend:
[1] = target: Flag-REV7 (human) (UniProt Q9UI95); test: co-IP
[2] = target: T1, Flag-FAM35A (human); test: co-IP

| Binder | binding [1] | binding [2] |
| --- | --- | --- |
| B1 | binds | – |
| B2 | binds | binds |
